No constants are given. Whether binding was seen depends on the method and setting. Binding seen in cells or lysates may run through a third protein. Some binding calls cover weakened binding; strength is not graded here.
Experiments:
[1] = biological target: active Cdc42 (human (endogenous in 293T)) (UniProt P60953); experiment: pull-down; extracts (2 mg) of 293T cells transfected with pcDNA3.1-myc/His-IQGAP3 incubated with GST-Pak1-p21 Binding Domain (Cdc42, Rac1), GST-Rhotekin-Rho Binding Domain (Rho) or GST-Raf1-Ras Binding Domain (Ras) and immobilised glutathione, 4 °C, 1 h; IQGAP3 in the precipitate of the active GTPase detected with anti-myc
[2] = biological target: myc-tagged IQGAP3 (IQ-domain GTPase activating protein 3) (human) (UniProt Q86VI3); experiment: co-IP; lysates of 293T cells 48 h after transfection; anti-c-myc (9E10), anti-E-cadherin (HECD-1) or anti-β-catenin (14) with rec-Protein G (or A) Sepharose 4B overnight at 4 °C; beads washed five times with 1 x TBS; immunoblot

Amino acid sequences for entries named in this document (tags omitted).
UniProt P60953: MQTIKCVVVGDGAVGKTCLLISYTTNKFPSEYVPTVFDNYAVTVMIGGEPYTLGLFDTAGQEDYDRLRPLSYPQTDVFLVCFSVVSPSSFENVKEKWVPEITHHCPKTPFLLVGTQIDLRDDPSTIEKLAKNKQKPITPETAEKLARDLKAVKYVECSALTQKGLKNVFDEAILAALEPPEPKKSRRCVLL
UniProt Q86VI3: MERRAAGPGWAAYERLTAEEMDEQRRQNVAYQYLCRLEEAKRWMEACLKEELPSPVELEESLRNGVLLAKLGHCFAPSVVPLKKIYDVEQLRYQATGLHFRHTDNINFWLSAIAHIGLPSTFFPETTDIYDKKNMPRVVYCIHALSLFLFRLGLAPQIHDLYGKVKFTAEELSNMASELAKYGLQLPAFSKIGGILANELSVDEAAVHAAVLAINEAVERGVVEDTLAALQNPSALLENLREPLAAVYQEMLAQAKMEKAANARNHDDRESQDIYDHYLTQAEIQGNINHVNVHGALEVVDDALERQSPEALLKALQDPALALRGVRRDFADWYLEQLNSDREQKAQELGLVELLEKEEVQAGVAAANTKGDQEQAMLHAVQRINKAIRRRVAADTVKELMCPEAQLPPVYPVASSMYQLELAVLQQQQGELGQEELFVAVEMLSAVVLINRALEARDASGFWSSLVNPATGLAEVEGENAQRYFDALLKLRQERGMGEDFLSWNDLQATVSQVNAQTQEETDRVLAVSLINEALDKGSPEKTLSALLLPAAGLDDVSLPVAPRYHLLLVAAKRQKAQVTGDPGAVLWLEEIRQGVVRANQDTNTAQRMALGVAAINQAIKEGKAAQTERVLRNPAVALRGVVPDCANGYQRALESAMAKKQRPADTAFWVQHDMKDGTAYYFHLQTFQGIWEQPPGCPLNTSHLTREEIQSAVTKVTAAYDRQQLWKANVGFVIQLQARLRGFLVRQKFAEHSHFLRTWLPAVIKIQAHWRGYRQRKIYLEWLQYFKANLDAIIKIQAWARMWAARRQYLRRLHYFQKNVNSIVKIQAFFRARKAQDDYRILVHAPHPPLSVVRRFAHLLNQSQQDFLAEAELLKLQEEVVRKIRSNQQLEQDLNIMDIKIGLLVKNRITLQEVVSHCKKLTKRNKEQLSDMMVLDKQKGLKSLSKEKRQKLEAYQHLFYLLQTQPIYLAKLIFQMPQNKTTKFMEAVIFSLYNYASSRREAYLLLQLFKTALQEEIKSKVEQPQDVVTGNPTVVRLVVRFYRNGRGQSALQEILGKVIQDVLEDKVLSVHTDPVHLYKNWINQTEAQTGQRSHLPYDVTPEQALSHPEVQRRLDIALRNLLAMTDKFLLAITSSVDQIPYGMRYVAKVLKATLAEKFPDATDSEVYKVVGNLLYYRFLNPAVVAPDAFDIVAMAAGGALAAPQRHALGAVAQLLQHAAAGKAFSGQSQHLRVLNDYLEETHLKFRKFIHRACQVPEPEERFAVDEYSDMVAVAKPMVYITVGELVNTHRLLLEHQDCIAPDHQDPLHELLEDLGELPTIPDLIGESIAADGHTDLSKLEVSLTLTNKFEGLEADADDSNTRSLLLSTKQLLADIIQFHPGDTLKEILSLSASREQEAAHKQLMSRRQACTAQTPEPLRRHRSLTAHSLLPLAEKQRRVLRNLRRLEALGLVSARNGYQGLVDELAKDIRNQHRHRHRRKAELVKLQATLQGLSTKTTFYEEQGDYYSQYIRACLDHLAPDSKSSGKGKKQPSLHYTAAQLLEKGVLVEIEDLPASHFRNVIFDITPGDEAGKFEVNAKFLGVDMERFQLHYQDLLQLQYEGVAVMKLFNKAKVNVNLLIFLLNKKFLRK
UniProt P35222: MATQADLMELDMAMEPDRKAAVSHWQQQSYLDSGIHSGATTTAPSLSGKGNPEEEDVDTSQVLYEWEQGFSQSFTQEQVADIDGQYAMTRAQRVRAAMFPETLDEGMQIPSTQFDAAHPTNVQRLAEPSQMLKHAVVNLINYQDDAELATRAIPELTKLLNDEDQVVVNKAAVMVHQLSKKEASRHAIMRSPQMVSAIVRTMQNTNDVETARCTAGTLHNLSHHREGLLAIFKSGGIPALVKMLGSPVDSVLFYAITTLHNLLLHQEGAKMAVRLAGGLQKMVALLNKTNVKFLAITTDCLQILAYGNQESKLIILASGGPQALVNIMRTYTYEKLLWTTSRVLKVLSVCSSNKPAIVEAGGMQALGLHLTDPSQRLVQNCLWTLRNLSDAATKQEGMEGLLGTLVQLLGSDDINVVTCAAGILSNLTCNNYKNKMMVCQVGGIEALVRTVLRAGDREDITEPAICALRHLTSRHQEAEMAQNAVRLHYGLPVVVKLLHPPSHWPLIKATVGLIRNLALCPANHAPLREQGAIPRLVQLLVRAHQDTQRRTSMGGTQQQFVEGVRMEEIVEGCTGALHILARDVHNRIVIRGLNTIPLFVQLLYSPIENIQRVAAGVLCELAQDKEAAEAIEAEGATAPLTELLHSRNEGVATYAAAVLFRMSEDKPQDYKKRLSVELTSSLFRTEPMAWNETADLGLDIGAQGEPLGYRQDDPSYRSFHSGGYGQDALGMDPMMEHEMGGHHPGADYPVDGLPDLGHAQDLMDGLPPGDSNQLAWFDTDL

Substance	binding [1]	binding [2]
myc-tagged IQGAP3 (IQ-domain GTPase activating protein 3) (from UniProt Q86VI3 1-1631)	binds	
β-catenin (from UniProt P35222 1-781)		binds

Reference: publication PMC7465220
